No constants are given. Whether binding was seen depends on the method and setting. A result given as binding can be weak or reduced; the word gives no strength.
Tests used:
[1] = target: NarG1, catalytic subunit of nitrate reductase 1 (Nar1) (Streptomyces coelicolor A3(2)) (UniProt O86717); test: native gel or EMSA; untagged Nar1 enriched from Triton X-100-solubilised spore membranes (M145 + pNGnar1) by DEAE Sepharose and Superdex-200; CN/PAGE (10%) with in-gel nitrate reductase activity staining; activity bands A, B and C excised and analysed by mass spectrometry
[2] = target: NarG1, catalytic subunit of nitrate reductase 1 (Nar1) (Streptomyces coelicolor A3(2)) (UniProt O86717); test: native gel or EMSA; untagged Nar1 enriched from Triton X-100-solubilised spore membranes (M145 + pNGnar1) by DEAE Sepharose and Superdex-200; BN/PAGE (4-16%), Coomassie-stained bands 1-5 excised and analysed by mass spectrometry
[3] = target: NarG1, catalytic subunit of nitrate reductase 1 (Nar1) (Streptomyces coelicolor A3(2)) (UniProt O86717); test: native gel or EMSA; untagged Nar1 enriched from Triton X-100-solubilised spore membranes (M145 + pNGnar1) by DEAE Sepharose and Superdex-200; CN/PAGE (10%) with in-gel nitrate reductase activity staining; activity bands A, B and C excised and analysed by mass spectrometry; remark: listed apart in the source

Chains of the proteins cited; added tags and fusions are not shown. Lines headed by an entry give the natural chain unless they say otherwise; changes in a name come on top.
UniProt O86717: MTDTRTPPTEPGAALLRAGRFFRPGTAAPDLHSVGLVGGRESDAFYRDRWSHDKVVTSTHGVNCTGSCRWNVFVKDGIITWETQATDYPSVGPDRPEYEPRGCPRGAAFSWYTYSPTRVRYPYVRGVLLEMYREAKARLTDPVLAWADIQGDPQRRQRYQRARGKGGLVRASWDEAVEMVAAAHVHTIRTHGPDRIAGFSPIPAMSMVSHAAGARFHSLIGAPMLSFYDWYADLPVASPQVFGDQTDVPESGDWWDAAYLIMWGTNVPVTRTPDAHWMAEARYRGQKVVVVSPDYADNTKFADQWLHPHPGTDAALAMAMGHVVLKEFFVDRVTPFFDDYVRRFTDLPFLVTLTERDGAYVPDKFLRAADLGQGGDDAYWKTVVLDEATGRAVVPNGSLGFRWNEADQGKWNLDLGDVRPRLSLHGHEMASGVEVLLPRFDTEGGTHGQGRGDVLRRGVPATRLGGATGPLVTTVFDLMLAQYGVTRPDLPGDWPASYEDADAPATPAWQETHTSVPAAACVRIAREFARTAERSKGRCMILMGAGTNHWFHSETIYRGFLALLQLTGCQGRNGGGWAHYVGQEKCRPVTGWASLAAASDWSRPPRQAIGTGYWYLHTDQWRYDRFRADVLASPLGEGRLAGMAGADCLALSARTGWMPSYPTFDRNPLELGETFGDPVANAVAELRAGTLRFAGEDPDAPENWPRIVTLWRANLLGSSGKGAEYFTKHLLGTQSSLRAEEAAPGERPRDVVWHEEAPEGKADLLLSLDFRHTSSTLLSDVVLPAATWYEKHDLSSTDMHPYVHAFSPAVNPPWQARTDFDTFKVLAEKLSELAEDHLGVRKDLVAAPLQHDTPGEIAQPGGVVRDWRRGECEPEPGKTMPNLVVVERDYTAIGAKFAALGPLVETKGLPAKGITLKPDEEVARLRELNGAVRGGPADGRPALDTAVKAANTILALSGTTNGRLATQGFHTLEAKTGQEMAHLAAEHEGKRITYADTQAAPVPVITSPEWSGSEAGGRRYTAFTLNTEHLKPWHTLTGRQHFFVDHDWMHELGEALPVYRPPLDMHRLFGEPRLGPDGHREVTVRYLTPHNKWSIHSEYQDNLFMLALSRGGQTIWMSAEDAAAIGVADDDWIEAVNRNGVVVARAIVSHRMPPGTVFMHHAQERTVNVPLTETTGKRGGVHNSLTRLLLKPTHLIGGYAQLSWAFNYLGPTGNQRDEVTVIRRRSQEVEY
UniProt Q9ZBY7: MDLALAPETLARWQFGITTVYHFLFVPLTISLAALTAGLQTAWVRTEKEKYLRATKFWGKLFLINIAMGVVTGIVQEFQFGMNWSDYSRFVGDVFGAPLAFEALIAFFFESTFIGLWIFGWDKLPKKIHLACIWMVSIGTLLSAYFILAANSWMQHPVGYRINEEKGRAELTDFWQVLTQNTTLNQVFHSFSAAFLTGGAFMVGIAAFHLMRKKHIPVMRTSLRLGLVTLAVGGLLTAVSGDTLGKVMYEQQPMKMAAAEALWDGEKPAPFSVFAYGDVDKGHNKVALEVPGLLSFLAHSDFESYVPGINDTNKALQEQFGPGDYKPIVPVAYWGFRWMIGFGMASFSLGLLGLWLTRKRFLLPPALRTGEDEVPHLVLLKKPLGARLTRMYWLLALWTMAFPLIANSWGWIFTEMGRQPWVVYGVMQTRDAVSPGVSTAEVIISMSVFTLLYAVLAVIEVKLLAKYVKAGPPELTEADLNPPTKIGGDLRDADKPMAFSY
UniProt Q9X808: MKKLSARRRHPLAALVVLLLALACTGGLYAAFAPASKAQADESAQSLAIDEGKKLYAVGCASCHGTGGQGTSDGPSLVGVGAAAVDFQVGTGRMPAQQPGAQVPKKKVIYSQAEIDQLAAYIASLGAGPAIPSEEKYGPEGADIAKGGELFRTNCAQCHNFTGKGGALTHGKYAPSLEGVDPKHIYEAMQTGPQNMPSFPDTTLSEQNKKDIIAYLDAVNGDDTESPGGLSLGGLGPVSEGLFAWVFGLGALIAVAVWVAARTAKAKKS

## CydA, catalytic subunit of the cytochrome bd oxidase (from UniProt Q9ZBY7)
[1]
  binding: binds

## QcrC, cytochrome bc1 complex cytochrome c subunit (from UniProt Q9X808)
[2]
  binding: binds
[1]
  binding: binds

B1: NarG3, nitrate reductase alpha-chain of the Nar3 enzyme (protein, UniProt Q9EWF3 1-1227)
chain: MADAADRLLKAGQLLRRSPTTLDLRAVYRTDQNVNDRPYRERWAHDKVVRSTHGVNCTGSCSWKVYVKDGLITWETQQTDYPSVGPDRPEYEPRGCPRGASFSWYTYSPTRVRHPLARGVLVEMYRDAKRRHGGDPVAAWAELTSDPEKRRRYQSARGRGGFVRVDWDEALEIAAAAQVHTIAEYGPDRVAGFSPIPAMSMASHAVGARYHSLIGAPMISFYDWYADLPIASPQVFGDQTDVPESGDWWDAAYLMLWGSNVPVTRTPDAHWMAEARYRGQKVVVVSPDYADATKFADEWLHPHPGTDGALAMAMGHVLLTEFFVRRQVPYFTDYVKRFTDLPFLVALDEHAAGRWTPGKFVTAADLGLGRHADAGARAWMPVLIDADTDDVVVPNGTLGDRWGKGGEGRWNLDLGGTDPLLTLHGHTGGRGDNGVEVVLPRFDEPGATVVRGVPAREIGGRLVTTVYDLLLAQYAVARPGLAGHWPTGYDDAEQPCTPAWQERLTSVPAEAAVRAAREFARTAEQTRGRCMIVMGAGTNHWFHSDTIYRSFLSLLILTGCQGVNGGGWAHYVGQEKVRPYTGWQQLSTAADWVRPSRQMAGTPYWYLHTGQWRYESHAADALASPTAPGTLAGLHTADLVAQSARLGWMPSYPTFDANPLDLGRRARESGQEPGDWIAEQLGSGAVDFACEDPDAPRNWPRVLTVWRANLIGSSAKGNEYFLRHLLGARDGATSSEAPPEHRPRSVAWRDDAPEGKLDLLLSLDFRMTSTTLFSDLVLPAATWYEKHDLSSTDMHPFVHAFSPAINPPWQARTDFEIFHSLARRLSELAAGRLGTAHDLVATALQHDTPGETAQPGGRVTDWRDGRTPIEPGRNAPQVSLVERDYTAVADRLAAFGPLAEEHGMTVKGVTVNPHEESRWLAARCGTAPAGPARGRPLLDTDVKFCEAILALSGTTNGRLAAEGFDRLADRVGPGAGLAELAASVGERRVVFSDTQERPVQVGASFEWSGKEAPDRRYSPFTVNTEHKKPWHTLTGRQHFYVDHDWMAELGEQLPVYRPPLNLAELGDAPIPTGDGRAVTVRYLTPHAKWSIHSEYQENLLMQTLARGGPVVWMSPADADAIGAADNDWVEAVNAHGVVVARAIVSHRVPDGTVLMYHVQERLVNVPKSEANGRRGGVHNSLTKLLVKPTHLIGGYGQLSFAPNYYGPTGNQRDAVTTIRRRSQEVTY
[3]
  binding: binds
[2]
  binding: binds

B2: NarH3, nitrate reductase beta-chain of the Nar3 enzyme (protein, UniProt Q9EWF4 1-548)
chain: MAQVAMVMNLDKCIGCHTCSVTCKQTWTNRTGTEYVWFNNVETRPGQGYPRGHEDQEKWKGGWHLKGGRLVPRTGGRARRLARLFANPELPTLDDYYQPWTYDYENLTTAPLGDDIPTAPPRSAIDGRPTEITWGPNWDDDLGGGPAQLAADPLLARMSEQVRLDYERAFMFYLPRICEHCLNPSCVAVCPSGALYKRVEDGIVLVDQDRCRGWRMCVSGCPYKKVYFNHSTGKAEKCTFCYPRIEAGDPTVCSETCVGRLRYLGVMLYDPDKVGAAASVTDEKDLYEAQLGCFLDPDDPEVARAAQASGIPHDWVEAARRSPVHALITRYRVALPLHPEYRTMPMVWYVPPLSPVVDALTGTGHDGEDPAALFGAIDTLRIPLGYLAELFTAGDPGPVEAALCRLAAMRSHMRRVNLGEEQDPRIAEAVGLDEPGILELYRLLALAKYDERYVIPTAYTGSVPDPGGTGAGCSLDGVGGPGMMPEGAGGGPGFGEFDPEAFHAPPTAGSGTSSALRGRVNLLNWNGKGRPNGLFPRARGAVRTEPEL
[3]
  binding: binds
[2]
  binding: binds

B3: QcrB, cytochrome b component of the cytochrome bcc-aa3 oxidase supercomplex (protein, UniProt Q9X806 1-545)
chain: MSTAANEPSRSRGKAPAGERVADWADGRLGIYSLAKANMRKIFPDHWSFMLGEVCLYSFIIIILTGVYLTLFFHPSMAEVEYHGSYVPLQGQMMSEAYASTLDISFDVRGGLLIRQIHHWAALIFLAGMFVHMMRVFFTGAFRKPREVNWLFGFLLLVLGMFTGFTGYSLPDDLLSGTGIRFMEGAILSVPIVGTYISFFLFGGEFPGHDFVSRFYSIHILLLPGIMLGLLVGHLILVFYHKHTQFAGPGKTNKNVVGMPLLPVYTAKAGGFFFLVFGVISVVSAIATINPIWAIGPYRPDQVSTGAQPDWYMGFSEGLIRVMPGWEINAWGHTLVLGVFVPLLIFPLVLAAIAVYPFIESWVTGDKREHHILDRPRNAPTRTAFGVAWLTVYFVLLIGGGNDLWATHFHLSINAITWFVRIAFFVGPVVAFIATKRICLGLQRRDKDKVLHGRESGIIKRLPHGEFIEVHEPLSQEQLHTLTAHEQYQPAEIGPTVDENGVERKVSGTQKLRAKLSESYYGEESQIPKPTVEEYKEITSGHGHH
[3]
  binding: binds
[2]
  binding: binds

B4: QcrA, cytochrome bc1 complex Rieske iron-sulfur subunit (protein, UniProt Q9X807 1-353)
chain: MSSQDIPEENLPAEQDRPHGAAARPADETNPFADPGLPPHEPRVQDVDERAAKRSERTVALLFTLSMLATIAFIAAFVAIDVDKSVYIFPLGHISALNFALGMTLGVALFAIGAGAVHWARTLMSDEEVADERHPIEASPEVRAKVHADFKQGAKESVIGRRKLIRNTMLGALTLVPLSGVVLLRDLGPLPGTKLRHTLWSKGKLLVNMNTNEPLRPSDVAVGSLTFAMPEGLEEHDEDFQNEIAKAALMIIRLEPDSIKDKRELEWSHEGIVAYSKICTHVGCPISLYEQQTHHALCPCHQSTFDLADGARVIFGPAGHALPQLRIGVNDEGYLEALGDFEEPVGPAYWERG
[3]
  binding: binds
[2]
  binding: binds

B5: CtaD, probable cytochrome c oxidase subunit 1-alpha (protein, UniProt Q9X813 1-578)
chain: MSILNEPQGASAAEDSYENELPVRRKQPGNVVIKWLTTTDHKTIGTMYLVTSFAFFVIGGVMALFMRAELARPGLQIMSNEQFNQAFTMHGTIMLLMFATPLFAGFANWIMPLQIGAPDVAFPRLNMFAYWLYLFGSTIAVGGFLTPQGAADFGWFAYSPLSDAVHSPGIGGDLWIMGLAFSGFGTILGSVNFITTIICMRAPGMTMFRMPIFTWNVLLTGVLVLLAFPVLAAALFALEADRKFGAHIFDSSNGGALLWQHLFWFFGHPEVYIIALPFFGIVSEIIPVFSRKPIFGYMGLIGATIAIAGLSVTVWAHHMYVTGGVLLPFFSFMTFLIAVPTGVKFFNWIGTMWKGSLSFETPMLWSTGFLITFLFGGLTGVILASPPLDFHVSDSYFVVAHFHYVVFGTVVFAMFAGFHFWWPKFTGKMLDERLGKITFWTLFVGFHGTFLVQHWLGAEGMPRRYADYLAADGFTALNTISTISSFLLGMSILPFFYNIWKTAKYGKKIEVDDPWGYGRSLEWATSCPPPRHNFLTLPRIRSESPAFDLHHPEISAIDQLENVGHGEKALAGGKEAGK
[3]
  binding: binds
[2]
  binding: binds

B6: CtaC, probable cytochrome c oxidase subunit 2 (protein, UniProt Q9X814 34-319)
chain: CTYEDFPRLGMPTPTTEEAPRILSLWQGSWAAALATGVLVWGLILWSVFFHRRSRTKVEVPPQTRYNLPIEALYTMVPLVIVSVLFYFTARDESDLMSLNKKPDLTVNVVGFQWSWCFNHIEDVPGSTGDAKTSKELAGIPDRFIEDFPANAGGVYDCGTPGTENPQTGNPGPTLWLPKGKTVRFVLTSRDVIHSFWVVPFLMKQDVIPGHTNAFEVTPNKEGTFLGKCAELCGVDHSRMLFNVKVVSPERYEQHLQDLAKKGQTGYVPAGIAQTSHEKNRETNNL
[3]
  binding: binds
[2]
  binding: binds

B7: QcrB3, alternative spore-specific cytochrome b, paralogue of QcrB (protein, UniProt Q9K4I9 1-554)
chain: MLLQRRRARAGARARHAAEHTVNWADGRLPVSEGGGLLRKAFPEHWSFLLGEIALYSFVVLLLTGVWLTLFFKPSMTEVVYDGSYEPLLGVSMSEAYRSTLDISFDVRGGLLIRQAHHWASLVFLSAIGVHLLRVFFTGAFRRPREVNWLIGLTLFVLALAEGFAGYSLPDDLLSGTGLRIAQGIMLSIPVVGTYISMFVFGGEYPGHDIVPRLYSLHILLVPALLVALVTLHLILVFYLKHTQWAGRGRTNRNAVGKPMFPQFMTNSTGLFLMVFGVLVVLAAVAEINPIWTYGPYRPDIVSTGSQPDWYVGFLEGSLRLMPPFETAVAGHTVMWNVLVPAVLLPGALFAVLYAYPFFERWVTGDHEEHHLCDRPRDKPVRTGLGVAAIVFYAVLLLAGGNDILAHTFHVSLNLLTWIFRVSLVLAPPLAFVVTKRVCLALQEHDRERLTEGEETGEVHQTLAGGYAESHGPLDPEERHVLRARRQPAPLAPSPKEGGAPHVGRLRATLSEWYYGDRVDVEDVEPEPERESVAQTEASAEAVERDAYSGEPER
[3]
  binding: binds
[2]
  binding: binds

Source: article PMC7931247
